For one molecule, binding results are on record in patent US20240182567A1.

The chains behind the UniProt entries cited, without tags or fusion partners. Residues count along the entry.
UniProt P09564, residues 26-240: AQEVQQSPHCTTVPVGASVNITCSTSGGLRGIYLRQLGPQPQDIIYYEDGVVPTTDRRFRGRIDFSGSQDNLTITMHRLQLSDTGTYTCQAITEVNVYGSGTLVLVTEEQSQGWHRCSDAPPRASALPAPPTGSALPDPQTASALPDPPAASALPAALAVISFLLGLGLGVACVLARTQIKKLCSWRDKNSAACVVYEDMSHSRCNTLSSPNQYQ

Assay [1] deals with CD7 (human) (UniProt P09564). As to the kind of experiment: flow cytometry; soluble scFv on CD7+ MOLT-4 and CD7- OP-1 cells, detected with goat anti-mouse F(ab')2. On the technique in general: A flow cytometer gives signals particle by particle.
Assay [2] concerns the target CD7 (human) (UniProt P09564). The assay is described as follows: flow cytometry; supernatant of scFv-transduced Jurkat cells on MOLT-4 (CD7+) and OP-1 (CD7-) cells.

No constants are given. Whether binding was seen depends on the method and setting. Some entries that bind do so weakly or less than the wild type.

B1: soluble anti-CD7 scFv (scFv of the anti-CD7 monoclonal antibody TH69) (scFv)
scFv: AAYKDIQMTQTTSSLSASLGDRVTISCSASQGISNYLNWYQQKPDGTVKLLIYYTSSLHSGVPSRFSGSGSGTDYSLTISNLEPEDIATYYCQQYSKLPYTFGGGTKLEIKRGGGGSGGGGSGGGGSGGGGSEVQLVESGGGLVKPGGSLKLSCAASGLTFSSYAMSWVRQTPEKRLEWVASISSGGFTYYPDSVKGRFTISRDNARNILYLQMSSLRSEDTAMYYCARDEVRGYLDVWGAGTTVTVSS
As for B1, the binding entry in assay [1] and in assay [2] was “binds” in each case.
